PubChem BioAssay AID651664 (NMMLSC, 2012)
Fewer than 10 of roughly 1,800 compounds were called active.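 The calls were made as follows: active = inhibition of granule release above a set limit; inactive = the rest.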 The list shows a part of the results.

Experiment: inhibitors of lytic granule exocytosis, flow cytometry, TALL-104 cells, validation set (AID 651664)
Conditions: TALL-104 LAMP-1 externalization, at 15.2 µM, hits give high values, stimulated with thapsigargin and PMA

| SMILES | inhibition |
| --- | --- |
| O=C(CCSc1ccc(Cl)cc1)c1cccs1 | inactive: 0.9% |
| O=C1C2C3C=CC(C3)C2C(=O)N1c1ccc(-c2nc3ccccc3o2)cc1 (centres undefined) | inactive: -0.3% |
| O=C1C(c2ccnc3ccccc23)=C(O)c2ccccc21 | inactive: -0.3% |
| Cc1ccccc1OCC(=O)OC1CCN(C)CC1 | inactive: 0.1% |
| CCOC(=O)c1sc(NC(=O)c2c(OC)cccc2OC)nc1C | inactive: -1.9% |
| O=C(c1cc2cc(Cl)ccc2oc1=O)N1CCCC1 | inactive: 23.5% |
| COc1ccc(-c2n[nH]c(C)c2-c2ccc(Cl)cc2)c(O)c1 | inactive: 1.8% |
| O=C(N/C=N/OCc1cccc(C(F)(F)F)c1)N1OC[C@@H]2COc3ccc4ccccc4c3[C@@H]21 | inactive: -3.7% |
| CCn1c(C)nc2cc(-c3nc4n(n3)Cc3ccccc3-4)ccc21 | inactive: -1.2% |
| Cc1noc(C)c1COc1cccc(C(=O)OCCOc2ccc(F)cc2)c1 | inactive: 0.1% |
| Cc1ccccc1OC(C)c1nc(-c2ccccc2)no1 (centres undefined) | inactive: 6.7% |
| N#CC(c1ccccc1)c1ccc2c(C(F)(F)F)cc(C(F)(F)F)nc2n1 (centres undefined) | inactive: 54.5% |
| O=S(=O)(c1ccc(S(=O)(=O)N(Cc2ccco2)Cc2ccccc2Cl)cc1)N1CCCC1 | inactive: 1.5% |
| CCN(CC)C(=O)CSc1nc2ccccc2c(=O)[nH]1 | inactive: 0.4% |
| COc1ccc(CC(=O)Nc2cc(C)on2)cc1OC | inactive: -0.9% |
| Cc1ccc(Cn2ccc(=O)c(OCc3c(Cl)cccc3Cl)c2C)cc1 | inactive: -1.6% |
| COc1cc(-c2ncc3ccccn23)cc(OC)c1OC | inactive: 3.5% |
| c1ccc(Sc2cnc3ccccc3n2)cc1 | inactive: 1.7% |
| CCOc1ccc(CCNC(=O)C2CCN(c3nn4c(=O)cc(C)nc4s3)CC2)cc1 | inactive: 3.6% |
| C=CCn1cc(-c2cccc(Cl)c2)cc(C#N)c1=O | inactive: 6.4% |
| CCN=C1S/C(=C\c2ccc(Sc3ccc(Cl)cc3)o2)C(=O)N1CC | inactive: 3.7% |
| COc1ccc(-c2cc(C(F)(F)F)n3ncc(C(=O)NCC4CCCO4)c3n2)cc1OC (centres undefined) | inactive: 1.8% |
| Cn1c2c(c(=O)n(C)c1=O)[C@@H]1c3c(ccc4ccccc34)OC[C@@H]1CO2 | inactive: 3.1% |
| CC(C)(C)NC(=O)C(=O)N/N=C/c1ccc(Br)cc1 | inactive: -2.4% |
| Cn1cnnc1Sc1cc(N2CCN(S(=O)(=O)c3ccc(Cl)c(Cl)c3)CC2)ccc1[N+](=O)[O-] | inactive: 0.3% |

Two of the compounds above, tab-delimited:
SMILES	inhibition
O=C(CCSc1ccc(Cl)cc1)c1cccs1	inactive: 0.9%
O=C1C2C3C=CC(C3)C2C(=O)N1c1ccc(-c2nc3ccccc3o2)cc1 (centres undefined)	inactive: -0.3%

Continuation.

| SMILES | inhibition |
| --- | --- |
| O=C(NC1CCCCCC1)c1nc2ncccn2n1 | inactive: -2.4% |
| COC(=O)c1ccccc1NC(=S)NC(=O)c1ccccc1 | inactive: 1.1% |
| Cc1nc(SCCCSc2n[nH]c(C)n2)n[nH]1 | inactive: -1.5% |
| CCOc1ccc(N2C(=O)CC(NCCc3ccc(S(N)(=O)=O)cc3)C2=O)cc1 (centres undefined) | inactive: 15.9% |
| Cc1nnc(SCC(=O)c2cc(C)n(C3CC3)c2C)s1 | inactive: 1.3% |
| COc1ccc(-c2ccc(-c3noc(-c4ccccc4OC)n3)c(OC)n2)cc1 | inactive: -0.5% |
| Cc1ccc(C(=O)N/C(=C/c2ccc(-c3cccc([N+](=O)[O-])c3)o2)C(=O)NC(C)C)cc1 | inactive: -2.7% |
| COc1ccc2c(c1OC)C(=O)N(c1cccc(C)c1)C2=O | inactive: 1.1% |
| N#Cc1cccc(NC(=O)CN2NS(=O)(=O)c3ccccc3C2=O)c1 | inactive: 1.1% |
| C=CCc1c(C)nc(SCc2nc3ccccc3c(=O)[nH]2)[nH]c1=O | inactive: 2% |
| CC(=O)N1CCN(c2nnnn2-c2ccccc2)CC1 | inactive: 1.1% |
| COc1ccc(-c2csc(NC(=O)c3ccco3)n2)cc1 | inactive: -2.2% |
| CC1N(O)C(c2ccc(Cl)cc2Cl)N(O)C1(C)C (centres undefined) | inactive: 0.8% |
| Cc1cc(C(=O)CSc2nnc(-c3ccco3)o2)c(C)n1CC1COc2ccccc2O1 (centres undefined) | inactive: 2.7% |
| CCCCc1ccc(NC(=O)OC)cc1 | inactive: -1.9% |
| Cc1nn(-c2ccccc2)c(C)c1C(=O)OCC(=O)NC(=O)NC1CCCC1 | inactive: -2.5% |
| CN(CCC#N)C(=O)c1ccc(CNS(=O)(=O)c2ccc(F)cc2)cc1 | inactive: -3.4% |
| N#CC(C(=O)NCCc1ccccc1)c1nc2ccccc2nc1N1CCCCC1 (centres undefined) | inactive: 2.9% |
| O=C(CCCOc1ccc(Cl)cc1Cl)N1CCCc2ccccc21 | inactive: -4.6% |
| CCc1ccc(NC(=O)Nc2cccs2)cc1 | inactive: 0% |
| O=C(O)c1ccc(NS(=O)(=O)c2cc(C(=O)O)ccc2Br)cc1 | inactive: 0.9% |
| CCOC(=O)C(C)On1c(-c2cccc(Cl)c2)nc2ccc([N+](=O)[O-])cc21 (centres undefined) | inactive: 0.8% |
| COc1ccc(NC(=O)CSc2c(C)nn(-c3nnc(C)c(=O)[nH]3)c2C)cc1 | inactive: 0.5% |
| Cc1nc(SCc2cccc(Oc3ccccc3)c2)n[nH]1 | inactive: -0.4% |
| CCCCCCC(=O)N1CCN(c2cc3c(cc2F)c(=O)c(C(=O)O)cn3CC)CC1 | inactive: 11.2% |

Another view of part of the listing above.
SMILES	inhibition
Cc1ccccc1OC(C)c1nc(-c2ccccc2)no1 (centres undefined)	inactive: 6.7%
N#CC(c1ccccc1)c1ccc2c(C(F)(F)F)cc(C(F)(F)F)nc2n1 (centres undefined)	inactive: 54.5%
O=S(=O)(c1ccc(S(=O)(=O)N(Cc2ccco2)Cc2ccccc2Cl)cc1)N1CCCC1	inactive: 1.5%
CCN(CC)C(=O)CSc1nc2ccccc2c(=O)[nH]1	inactive: 0.4%
COc1ccc(CC(=O)Nc2cc(C)on2)cc1OC	inactive: -0.9%
Cc1ccc(Cn2ccc(=O)c(OCc3c(Cl)cccc3Cl)c2C)cc1	inactive: -1.6%
COc1cc(-c2ncc3ccccn23)cc(OC)c1OC	inactive: 3.5%
c1ccc(Sc2cnc3ccccc3n2)cc1	inactive: 1.7%
CCOc1ccc(CCNC(=O)C2CCN(c3nn4c(=O)cc(C)nc4s3)CC2)cc1	inactive: 3.6%
C=CCn1cc(-c2cccc(Cl)c2)cc(C#N)c1=O	inactive: 6.4%
CCN=C1S/C(=C\c2ccc(Sc3ccc(Cl)cc3)o2)C(=O)N1CC	inactive: 3.7%
COc1ccc(-c2cc(C(F)(F)F)n3ncc(C(=O)NCC4CCCO4)c3n2)cc1OC (centres undefined)	inactive: 1.8%
Cn1c2c(c(=O)n(C)c1=O)[C@@H]1c3c(ccc4ccccc34)OC[C@@H]1CO2	inactive: 3.1%
CC(C)(C)NC(=O)C(=O)N/N=C/c1ccc(Br)cc1	inactive: -2.4%
Cn1cnnc1Sc1cc(N2CCN(S(=O)(=O)c3ccc(Cl)c(Cl)c3)CC2)ccc1[N+](=O)[O-]	inactive: 0.3%
O=C(NC1CCCCCC1)c1nc2ncccn2n1	inactive: -2.4%
COC(=O)c1ccccc1NC(=S)NC(=O)c1ccccc1	inactive: 1.1%
Cc1nc(SCCCSc2n[nH]c(C)n2)n[nH]1	inactive: -1.5%
CCOc1ccc(N2C(=O)CC(NCCc3ccc(S(N)(=O)=O)cc3)C2=O)cc1 (centres undefined)	inactive: 15.9%
Cc1nnc(SCC(=O)c2cc(C)n(C3CC3)c2C)s1	inactive: 1.3%
COc1ccc(-c2ccc(-c3noc(-c4ccccc4OC)n3)c(OC)n2)cc1	inactive: -0.5%
Cc1ccc(C(=O)N/C(=C/c2ccc(-c3cccc([N+](=O)[O-])c3)o2)C(=O)NC(C)C)cc1	inactive: -2.7%
COc1ccc2c(c1OC)C(=O)N(c1cccc(C)c1)C2=O	inactive: 1.1%
N#Cc1cccc(NC(=O)CN2NS(=O)(=O)c3ccccc3C2=O)c1	inactive: 1.1%
C=CCc1c(C)nc(SCc2nc3ccccc3c(=O)[nH]2)[nH]c1=O	inactive: 2%

More results follow.

| SMILES | inhibition |
| --- | --- |
| O=C(CCS(=O)(=O)c1ccc(Cl)cc1)OCC(=O)N1CCCCC1 | inactive: 4.4% |
| CN1C(=O)C2(N=c3ccccc3=N2)c2ccccc21 | inactive: 0.5% |
| CCc1cc(C(=O)O)c(NC(=O)C(c2ccccc2)c2ccccc2)s1 | inactive: 3.3% |
| NS(=O)(=O)c1cccc(NC(=O)CSc2ccccn2)c1 | inactive: -0.3% |
| O=S(=O)(c1cccc2cccnc12)N1CCN(Cc2ccc3c(c2)OCO3)CC1 | inactive: -0.3% |
| Cc1ccc(N2C(=O)c3ccccc3C2(O)c2ncc[nH]2)cc1 (centres undefined) | inactive: 2.1% |
| O=C(Nc1ccc2c(c1)OCO2)C1CCN(Cc2cnn(-c3ccccc3)c2-n2cccc2)CC1 | inactive: 0.4% |
| COP(C)(=O)c1c(C)nn(-c2ccccc2)c1C (centres undefined) | inactive: -2.1% |
| COc1ccc(N2C(=O)CC(NCc3cccc(F)c3)C2=O)cc1 (centres undefined) | inactive: 1.4% |
| O=C(NCc1nc2ccccc2[nH]1)c1cc2ccccc2oc1=O | inactive: 6.1% |
| O=C(CNC(=O)/C(=C\c1ccccc1)NC(=O)c1ccc(Br)cc1)OCc1ccccc1 | inactive: -2.8% |
| CCOC(=O)NCc1ccc(CNC(=O)OCC)cc1 | inactive: 5.6% |
| CN(CC(=O)N1CCN(c2ccccn2)CC1)S(=O)(=O)c1ccc(Br)cc1 | inactive: 3.5% |
| O=C1CC(SCCc2nc3ccccc3[nH]2)C(=O)N1c1ccc(F)c(Cl)c1 (centres undefined) | inactive: -1.1% |
| N#Cc1c(F)cccc1N1CCOCC1 | inactive: 1.2% |
| CC(=NCC1CCCO1)c1c(O)[nH]c(=O)[nH]c1=O (centres undefined) | inactive: -0.2% |
| O=C(CN1C(=O)CC(c2ccccc2)=Nc2ccccc21)NCc1ccccc1 | inactive: 1.9% |
| CCn1c(SCC(=O)Nc2sc3c(c2C(N)=O)CCC(C)C3)nnc1-c1ccco1 (centres undefined) | inactive: 0.6% |
| Cc1cc(OCC(=O)Nc2ccncc2)ccc1Br | inactive: -0.6% |
| CCCSC1=N/C(=C\c2ccsc2)C(=O)S1 | inactive: 3.4% |
| CCCNC(=O)c1ccccc1NC(=O)c1ccccc1N(C)S(=O)(=O)c1ccc(C)cc1 | inactive: 2% |
| CCOC(=O)c1[nH]c(C)c(/C(O)=C2\C(=O)C(=O)N(CCN(C)C)C2c2ccncc2)c1C (centres undefined) | inactive: 4% |
| O=C(O)CCCCCNC(=O)Nc1ccc2c(c1)OCCO2 | inactive: -3.4% |
| CN1C(=O)c2cccc3c(S(=O)(=O)NCc4ccco4)ccc1c23 | inactive: -2.4% |
| CC(C)COc1ccc(Cc2cnc(N)nc2N)cc1 | inactive: 2% |

| SMILES | inhibition |
| --- | --- |
| C(=C\c1ccccc1)/CSc1nnc(-c2ccncc2)n1Cc1ccco1 | inactive: 4.6% |
| CSCC[C@H](Nc1ncnc2sc(C)c(C)c12)C(=O)O | inactive: -2.3% |
| C(#CCN1CCOCC1)COC(c1ccccc1)c1ccccc1 | inactive: 0.6% |
| COc1ccc(CCNC(=O)c2ccccc2NC(=O)c2ccco2)cc1OC | inactive: -1.7% |
| O=[N+]([O-])c1cn(Cc2ccc(Cl)cc2)cn1 | inactive: 4.5% |
| O=C1CSC(=S)N1Cc1cccnc1 | inactive: -1.3% |
| Cc1cc(C(=O)CSc2ccc(F)cc2)cc(C)c1OC(=S)N(C)C | inactive: -0.8% |
| O=C(CN1CCN(c2cccc(C(F)(F)F)c2)CC1)Nc1cccc(C(F)(F)F)c1 | inactive: -3.2% |
| N/C(=N\OC(=O)c1cccc(Br)c1)c1ccc(Br)cc1 | active: 57.6% |
| O=C(c1n[nH]c(=O)c2ccccc12)N1CCOCC1 | inactive: 3% |
| COC(=O)c1cccc(NC(=O)c2ccco2)c1 | inactive: -2.7% |
| Cc1ccccc1C1CC(c2ccccc2OC(F)F)Nc2ncnn21 (centres undefined) | inactive: -2.3% |
| CCCS(=O)(=O)c1snnc1C | inactive: 2% |
| CN(CC(=O)NC(c1ccccc1)c1ccccc1)Cc1nc2ccccc2c(=O)[nH]1 | inactive: -1.3% |
| C(=N\n1cnnc1)/c1ccccc1OCCOc1ccccc1 | inactive: 8.7% |
| Cc1c(Cl)cccc1-n1c(SCC(=O)NCc2cccs2)nnc1-c1ccncc1 | inactive: 0.3% |
| CC(C)c1noc2ncc(C(=O)c3cc(Cl)cc(Cl)c3O)cc12 | inactive: -2.7% |
| CC(C)=CCCC(C)N(C=O)C(C)CCC=C(C)C (centres undefined) | inactive: -4.5% |
| CCOC(=O)c1nn(-c2ccc(F)cc2)c(C)c1C(C)=O | inactive: 3.8% |
| CCCCSc1nnc2n(CCc3ccccc3)c(=O)c3c4c(sc3n12)COC(C)(C)C4 | inactive: -1% |
| COc1ccc(CC(=O)NCc2cn3ccsc3n2)cc1 | inactive: -1.3% |
| O=C(CC1Nc2ccccc2NC1=O)NCCCN1CCCCCC1 (centres undefined) | inactive: -1.3% |
| CCCc1nc2ccccc2c(=O)n1/N=C/c1ccccc1O | inactive: -1.9% |
| O=C(/C=C/NNC(=O)c1ccccc1)c1ccc(Br)cc1 | inactive: -1.9% |
